Experiment [1] deals with Ccq1^HA (S. pombe) (UniProt Q10432). Put plainly: affinity purification with mass spectrometry.
The target is the same in experiment [2]. The experiment in a line: affinity purification with mass spectrometry. This is another data set of the same source.

Sequences of proteins named here, by UniProt entry; tags and fusion partners are left off.
UniProt P56523: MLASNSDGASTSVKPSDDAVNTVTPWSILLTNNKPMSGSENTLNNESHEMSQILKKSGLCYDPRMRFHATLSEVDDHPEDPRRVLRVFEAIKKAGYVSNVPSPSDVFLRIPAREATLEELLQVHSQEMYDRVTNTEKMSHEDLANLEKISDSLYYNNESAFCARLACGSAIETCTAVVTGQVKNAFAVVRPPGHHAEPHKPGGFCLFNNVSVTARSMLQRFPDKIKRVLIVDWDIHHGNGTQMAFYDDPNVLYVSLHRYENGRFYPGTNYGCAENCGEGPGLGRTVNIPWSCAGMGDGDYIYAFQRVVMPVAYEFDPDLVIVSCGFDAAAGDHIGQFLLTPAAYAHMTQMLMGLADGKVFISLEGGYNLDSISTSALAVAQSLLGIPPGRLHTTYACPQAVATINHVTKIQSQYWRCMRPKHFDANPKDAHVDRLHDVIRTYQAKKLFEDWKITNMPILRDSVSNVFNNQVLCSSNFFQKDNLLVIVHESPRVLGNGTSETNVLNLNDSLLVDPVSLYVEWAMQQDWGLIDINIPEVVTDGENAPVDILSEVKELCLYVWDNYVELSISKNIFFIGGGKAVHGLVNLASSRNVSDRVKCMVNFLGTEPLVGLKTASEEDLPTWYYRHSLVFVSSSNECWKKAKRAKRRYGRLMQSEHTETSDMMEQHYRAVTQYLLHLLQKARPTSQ

Consider two molecules from publication doi:10.1101/405712.

Where two headings read alike, the source gives them in different places. Results are given in words; binding and its absence hold for the method and conditions named. In cells and extracts the contact can be indirect. Here binding means that the protein was enriched with, or labelled near, the bait; the list need not be complete.

On to “Clr3 (from UniProt P56523 1-687) (enzyme)”, for which the binding entry in the experiment with Ccq1^HA (S. pombe) [1] and with Ccq1^HA (S. pombe) [2] was “binds” in each case.

B1: Hip1 (protein, UniProt P87314 1-932)
chain: MKIKKIPWLGHFDDRGHRLSIFSIHIHPDGSRIATGGLDGTIRIWSTEAINRENENENENEDLPKQLCCMSTHTGTVTSVRFSPNGQYLASGSDDRVVIIWHKEEAIPGLGSTFGSGEKHTENWRSYRRLLGHDNDIQDLCWSYDSQLVVSVGLDSSIIVWNGTTFERLKRIEAHQSHVKGITFDPAGKYFATESDDRTIKVWRVSDFSIEKTITGPFNNSPLSTYFRRPSWSPDGKHIAAPNAMNGPVSCVSIIERGTWTSEINLIGHEGPVEVTAFNPKLFRDKNDKLVCILACGGQDRSLSIWSSALPRPLLSCQNVFQKSIGDVCWSPDGLSLFLCSYDGNVLVCTFEKEEFGDMVSDEEISKALAKYGHGRHGIVLPESAKQLELEETAYAILKKPSSLSTTDPTLVPQSSSTPKSAQKTPQKLPAFLPNRLTAETVDTNKLTASKEQIASPKRPGPSDNGNEIPTKFVQKVTITKEGKKRVAPQLLTTLSATPSTSRLASTQLQHTGSSQLPPQQFSQPINSLPKGGVPILIVGNKTKVNHENDESDQALQEEKIEEGLLKNYYSSLIDSSTSISNINFEAPRYKTNIVHSLNNEQKYVLEVKNGTSEKNPTRIVALENGNTKWMDYLPRPVILVTGSIHFWSIACDDGSLHLYSLTGSRLLPPIMIESKASFLHCNNAYLLCISSSGMVYAWNVVNKTALFTANSLAPILSRVSNNVTIENNSTDIPHVVIASISKEGVPSVTLSTGETYVYSSTMLCWQRITEPWWAIGSREWDSSGLLQSNTQTESQPLKIYEHRTNNVLMDSGRGKLLQKMVADAITEEGYDDFETIVTINHLENKIASARLLKLDDEFLVTSEVYVRLLMHHGLWQKLEEFLGELRTQTKCSIKLSGREVVAKMLVVLRQAVQTDNEFDRANKLIEKYAST
On to B1, for which the binding result in the experiment with Ccq1^HA (S. pombe) [1] and with Ccq1^HA (S. pombe) [2] was “binds” throughout.
